Measured values reported in patent US11976311B2, “Method of adjusting the pH of a pretreatment solution using carbon dioxide useful for integrating saccharification and fermentation of a biomass” (National Technology & Engineering Solutions of Sandia, LLC, priority 2014, dated 2024).

Experiment: One-pot pretreatment and saccharification of switchgrass using [Ch][Lys] and CO2
Parameters: species or system Panicum virgatum
[1] = 10 wt % [Ch][Lys]-water as pretreatment medium and throughout saccharification
[2] = CO2 and [Ch][Lys] based one-pot process, after 72 h saccharification, commercial enzyme mixture

C[N+](C)(C)CCO.NCCCC[C@H](N)C(=O)[O-] [[Ch][Lys], cholinium lysinate]
glucose yield [1]: 85% | xylose yield (monomer) [1]: 11% | glucose yield [2]: 87% | xylose yield [2]: 40%
